Source: patent publication US20240336649
No signal at the amounts used counts as a negative.

Test system: Omomyc-Myc 18 (S-aryl linked covalent dimer)
Assay: EMSA
Settings: synthetic protein

“CCGGCTGACACGTGGTATTAAT (double strand) [E-box DNA probe (22 bp)]”: no binding.
